Measured values reported in patent US20100111953A1.
No constants are given. Whether binding was seen depends on the method and setting. Some binding calls cover weakened binding; strength is not graded here.

Amino acid sequences for entries named in this document (tags omitted). A change or cut given only in a name is not applied to a line headed by its entry. Residues count along the entry.
UniProt Q9WU72: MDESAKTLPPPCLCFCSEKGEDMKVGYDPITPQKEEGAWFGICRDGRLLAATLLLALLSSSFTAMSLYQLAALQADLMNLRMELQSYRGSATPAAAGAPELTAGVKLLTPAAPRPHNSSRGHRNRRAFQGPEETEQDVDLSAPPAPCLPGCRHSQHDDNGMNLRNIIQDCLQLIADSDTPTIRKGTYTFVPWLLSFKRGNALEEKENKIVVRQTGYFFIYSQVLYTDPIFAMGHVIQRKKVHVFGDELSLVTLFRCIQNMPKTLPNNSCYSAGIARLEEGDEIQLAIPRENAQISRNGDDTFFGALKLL
mouse B Lymphocyte Stimulator: residues 127-309 of Q9WU72

Experiments:
[1] = biological target: membrane-bound B Lymphocyte Stimulator on P388 plasma membranes (mouse) (mouse) (UniProt Q9WU72); test: phage ELISA
[2] = biological target: mouse B Lymphocyte Stimulator (mouse) (UniProt Q9WU72); test: phage ELISA

Row | binding [1] | binding [2] | Binder
1 | binds |  | I082H08 (scFv) scFv: EVQLVESGGGLVQPGGSLRLSCAASGFTFSDYGMHWVRQRPGKGLEWIAFIGSDGSNKYYGDTVKGRFTISRDNAKNSLYLQMNSLRAEGTAVYYCARDWDMDVWGQGTMVTVSSGGGGSGGGGSGGGGSSHVILTQPRSVSGSPGQSVTISCTGTSSDVGGYHYVSWYQQHPGKAPRLMIYEVTKRPSGVSNRFSGSKSGNTASLTISGVQAEDEADYYCSSYTSASTVIFGGGTKLTVLG
2 | binds |  | I099D03 (scFv) scFv: QVQLVQSGAEVKKPGASVRVSCKSSGYTFTNYGISWVRQAPGQGLEWMGWISNNNGKTYYAQKVQGRVTMTTDTSTSTDYMELRGLRSDDTAIYYCARDNGGGTIGFDYWGRGTLVTVSSGGGGSGGGGSGGGGSAQAVLTQPSSVSGAPGQRVTMSCTGSSSNIGAGYDVHWYQQLPGTAPKLLIYDNTNRPSGVPDRFSGSRSGTSASLAITGLQAEDEADYFCQSYDITLSAVFGTGTKVTVLG
3 |  | binds | I003F12 (scFv) scFv: QVQLLQSAAELKKPGQSLKISCKGSGFTFTTYWIGWVRQLPGKGLEWMGIIYPGDSHTTYSPSFEGHVNISVDKSINTAYLQWSSLKASDTAMYYCARHDDDVLTGYYFESWGQGTMVTVSSGGGGSGGGGSGGGGSQSVLTQPASVSGSPGQSITISCTGTSSDVGGYNYVSWYQQHPGKAPKLMIYEGSKRPSGVSNRFSGSKSGNTASLTISGLQAEDEADYYCSSYTTRSTRVFGGGTKLTVLG
